From publication PMC10857193
Results are given in words; binding and its absence hold for the method and conditions named. Binding seen in cells or lysates may run through a third protein. These calls come from enrichment with a bait or labelling near it, and not all partners need be listed. Each block holds one molecule with its values, some of them ahead of it.

Amino acid sequences for entries named in this document (tags omitted). A change or cut given only in a name is not applied to a line headed by its entry.
UniProt Q9FMP5: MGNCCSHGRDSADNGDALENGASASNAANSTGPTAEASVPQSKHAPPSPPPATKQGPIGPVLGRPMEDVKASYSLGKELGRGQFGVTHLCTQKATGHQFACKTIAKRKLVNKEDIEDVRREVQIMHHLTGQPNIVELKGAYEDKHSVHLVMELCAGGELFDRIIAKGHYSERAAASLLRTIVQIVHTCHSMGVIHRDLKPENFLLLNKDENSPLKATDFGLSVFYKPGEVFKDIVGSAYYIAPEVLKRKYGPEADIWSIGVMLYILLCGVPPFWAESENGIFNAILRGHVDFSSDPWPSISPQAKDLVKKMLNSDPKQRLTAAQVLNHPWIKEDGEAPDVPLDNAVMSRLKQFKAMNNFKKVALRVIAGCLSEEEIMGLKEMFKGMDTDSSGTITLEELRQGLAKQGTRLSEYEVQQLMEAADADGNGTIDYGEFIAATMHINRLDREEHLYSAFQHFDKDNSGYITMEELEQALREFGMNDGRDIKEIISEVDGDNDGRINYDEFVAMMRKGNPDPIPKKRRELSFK
UniProt A0A1S3Z926: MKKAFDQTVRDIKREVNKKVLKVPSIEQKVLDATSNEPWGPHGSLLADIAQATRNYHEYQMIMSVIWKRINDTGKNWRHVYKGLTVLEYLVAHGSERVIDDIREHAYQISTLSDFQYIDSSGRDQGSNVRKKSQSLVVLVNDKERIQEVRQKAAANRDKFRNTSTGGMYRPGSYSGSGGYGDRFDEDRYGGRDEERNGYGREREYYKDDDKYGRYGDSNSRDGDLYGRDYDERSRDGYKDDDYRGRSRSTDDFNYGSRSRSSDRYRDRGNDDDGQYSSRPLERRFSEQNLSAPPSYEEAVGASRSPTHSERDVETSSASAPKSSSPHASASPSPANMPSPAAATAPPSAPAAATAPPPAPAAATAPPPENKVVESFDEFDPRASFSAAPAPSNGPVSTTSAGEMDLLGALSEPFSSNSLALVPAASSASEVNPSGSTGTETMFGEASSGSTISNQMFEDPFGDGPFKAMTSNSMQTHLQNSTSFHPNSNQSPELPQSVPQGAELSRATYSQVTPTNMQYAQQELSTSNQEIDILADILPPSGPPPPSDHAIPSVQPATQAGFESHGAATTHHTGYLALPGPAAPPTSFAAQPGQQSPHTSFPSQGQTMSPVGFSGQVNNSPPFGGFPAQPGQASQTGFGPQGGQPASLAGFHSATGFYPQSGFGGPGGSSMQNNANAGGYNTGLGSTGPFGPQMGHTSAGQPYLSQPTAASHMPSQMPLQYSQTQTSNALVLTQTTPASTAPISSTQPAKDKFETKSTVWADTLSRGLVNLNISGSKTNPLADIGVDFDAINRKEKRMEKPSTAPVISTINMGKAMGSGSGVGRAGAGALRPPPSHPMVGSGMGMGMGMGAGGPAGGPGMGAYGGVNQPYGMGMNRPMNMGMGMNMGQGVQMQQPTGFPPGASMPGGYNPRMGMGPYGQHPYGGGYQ
UniProt A0A1S4CPM1: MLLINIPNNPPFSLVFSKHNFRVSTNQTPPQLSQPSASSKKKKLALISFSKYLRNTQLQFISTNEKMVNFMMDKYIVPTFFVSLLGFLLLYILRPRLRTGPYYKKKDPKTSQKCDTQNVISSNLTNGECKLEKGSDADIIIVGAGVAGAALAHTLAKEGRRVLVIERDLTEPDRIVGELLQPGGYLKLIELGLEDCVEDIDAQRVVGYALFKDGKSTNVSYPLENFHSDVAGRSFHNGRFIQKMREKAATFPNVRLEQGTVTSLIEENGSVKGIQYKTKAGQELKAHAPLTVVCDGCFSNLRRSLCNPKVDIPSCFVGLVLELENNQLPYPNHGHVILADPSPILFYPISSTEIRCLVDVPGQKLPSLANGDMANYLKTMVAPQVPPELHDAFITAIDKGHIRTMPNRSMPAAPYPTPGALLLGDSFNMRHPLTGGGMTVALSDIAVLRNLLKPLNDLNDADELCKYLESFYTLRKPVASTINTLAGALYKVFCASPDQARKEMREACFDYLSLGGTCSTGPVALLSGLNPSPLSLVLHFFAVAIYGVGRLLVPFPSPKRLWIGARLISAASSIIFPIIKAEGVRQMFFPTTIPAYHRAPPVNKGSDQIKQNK
UniProt A0A1S4CMX7: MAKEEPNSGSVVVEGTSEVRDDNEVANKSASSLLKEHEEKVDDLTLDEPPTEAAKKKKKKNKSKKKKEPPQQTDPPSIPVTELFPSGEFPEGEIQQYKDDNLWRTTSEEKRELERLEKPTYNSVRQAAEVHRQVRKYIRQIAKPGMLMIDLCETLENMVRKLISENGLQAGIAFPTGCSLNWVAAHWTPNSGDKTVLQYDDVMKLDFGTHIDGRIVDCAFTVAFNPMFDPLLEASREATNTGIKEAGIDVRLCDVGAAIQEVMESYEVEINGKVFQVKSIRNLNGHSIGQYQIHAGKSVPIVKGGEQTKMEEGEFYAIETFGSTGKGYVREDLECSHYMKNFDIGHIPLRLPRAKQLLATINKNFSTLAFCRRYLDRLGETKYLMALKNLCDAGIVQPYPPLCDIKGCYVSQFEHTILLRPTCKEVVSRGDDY
UniProt A0A1S4AFS9: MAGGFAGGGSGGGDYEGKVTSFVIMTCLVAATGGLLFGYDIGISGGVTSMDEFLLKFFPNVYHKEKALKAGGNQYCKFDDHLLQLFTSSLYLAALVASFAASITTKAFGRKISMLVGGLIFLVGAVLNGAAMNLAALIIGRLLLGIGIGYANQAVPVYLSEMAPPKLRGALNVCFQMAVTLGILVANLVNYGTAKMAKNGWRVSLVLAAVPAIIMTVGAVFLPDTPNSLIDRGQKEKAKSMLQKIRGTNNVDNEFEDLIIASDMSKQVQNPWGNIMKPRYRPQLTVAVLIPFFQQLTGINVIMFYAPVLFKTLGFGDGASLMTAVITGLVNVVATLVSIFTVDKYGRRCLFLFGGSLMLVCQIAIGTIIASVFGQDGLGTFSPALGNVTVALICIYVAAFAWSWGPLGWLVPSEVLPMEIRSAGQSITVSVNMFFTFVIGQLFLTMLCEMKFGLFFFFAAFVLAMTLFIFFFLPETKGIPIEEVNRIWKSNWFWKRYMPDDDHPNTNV
UniProt A0A0S0N4U0: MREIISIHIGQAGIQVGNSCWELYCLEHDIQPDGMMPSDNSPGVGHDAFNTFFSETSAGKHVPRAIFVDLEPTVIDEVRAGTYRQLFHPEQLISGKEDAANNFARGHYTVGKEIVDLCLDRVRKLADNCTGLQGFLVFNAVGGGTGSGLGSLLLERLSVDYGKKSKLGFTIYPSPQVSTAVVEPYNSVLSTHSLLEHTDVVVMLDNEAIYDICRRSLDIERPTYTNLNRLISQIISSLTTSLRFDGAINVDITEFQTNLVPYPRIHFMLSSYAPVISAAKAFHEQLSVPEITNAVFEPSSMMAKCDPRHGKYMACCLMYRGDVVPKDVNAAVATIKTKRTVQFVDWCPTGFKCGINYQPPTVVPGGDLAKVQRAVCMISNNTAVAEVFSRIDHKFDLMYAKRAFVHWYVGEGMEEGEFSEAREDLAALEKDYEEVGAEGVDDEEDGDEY
UniProt A0A1S3XWB5: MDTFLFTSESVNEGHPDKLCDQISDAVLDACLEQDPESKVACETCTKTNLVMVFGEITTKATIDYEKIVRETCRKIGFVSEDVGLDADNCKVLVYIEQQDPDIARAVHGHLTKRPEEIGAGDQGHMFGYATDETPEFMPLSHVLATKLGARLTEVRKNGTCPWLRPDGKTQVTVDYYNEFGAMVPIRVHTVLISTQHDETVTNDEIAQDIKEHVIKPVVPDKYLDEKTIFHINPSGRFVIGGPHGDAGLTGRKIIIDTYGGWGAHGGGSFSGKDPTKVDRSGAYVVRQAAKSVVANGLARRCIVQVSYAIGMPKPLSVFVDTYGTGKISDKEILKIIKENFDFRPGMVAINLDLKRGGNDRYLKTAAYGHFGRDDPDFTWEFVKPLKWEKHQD
UniProt A0A024AYA4: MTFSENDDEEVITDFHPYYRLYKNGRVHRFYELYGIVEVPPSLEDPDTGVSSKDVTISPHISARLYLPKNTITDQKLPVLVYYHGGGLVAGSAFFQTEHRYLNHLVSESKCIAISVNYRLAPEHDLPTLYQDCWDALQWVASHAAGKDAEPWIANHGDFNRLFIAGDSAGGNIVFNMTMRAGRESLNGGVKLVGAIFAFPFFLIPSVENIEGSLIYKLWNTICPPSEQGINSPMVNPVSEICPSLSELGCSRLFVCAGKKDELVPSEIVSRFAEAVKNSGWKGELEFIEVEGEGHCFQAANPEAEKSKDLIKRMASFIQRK

Target: PiCDPK1:GFP (Petunia) (UniProt Q9FMP5)
Experiment: affinity purification with mass spectrometry; GFP-trap magnetic beads capture PiCDPK1:GFP from cleared lysate of germinated transgenic N. tabacum pollen; 2 h at 4 °C; 25 mM HEPES pH 7.4, 10 mM MgCl2, 100 mM NaCl, 10% glycerol, 1 mM DTT, 1 mM CaCl2, 1% Triton-X 100; three washes; on-bead trypsin digestion, LC-MS/MS; control pollen expressing GFP alone; hits filtered (>=2 of 3 replicates, >1.75-fold enrichment, >1 unique peptide, plasma membrane or cytosol)

binding: binds
Molecule: N. tabacum A0A1S3Z926 (homolog of Epsin 3) (from UniProt A0A1S3Z926)

binding: binds
Molecule: N. tabacum A0A1S4CPM1 (homolog of Squalene epoxidase 3) (from UniProt A0A1S4CPM1)

binding: binds
Molecule: N. tabacum A0A1S4CMX7 (homolog of Methionine aminopeptidase 2b) (from UniProt A0A1S4CMX7)

binding: binds
Molecule: N. tabacum A0A1S4AFS9 (homolog of Sugar Transport Protein 10) (from UniProt A0A1S4AFS9)

binding: binds
Molecule: N. tabacum A0A0S0N4U0 (homolog of Tubulin alpha-3) (from UniProt A0A0S0N4U0)

binding: binds
Molecule: N. tabacum A0A1S3XWB5 (homolog of S-adenosylmethionine synthetase 3) (from UniProt A0A1S3XWB5)

binding: binds
Molecule: N. tabacum A0A024AYA4 (homolog of Carboxyesterase 13) (from UniProt A0A024AYA4)

binding: binds
B1: NtGF14 (protein, UniProt Q75ZD6 1-258)
chain: MASPREENVYMAKLAEQAERYEEMVEFMEKVVAAADGAEELTVEERNLLSVAYKNVIGARRASWRIISSIEQKEESRGNEDHVASIKEYRSKIETELTSICNGILKLLDSKLIGAAATGDSKVFYLKMKGDYHRYLAEFKTGAERKEAAENTLSAYKSAQDIANTELAPTHPIRLGLALNFSVFYYEILNSPDRACNLAKQAFDEAIAELDTLGEESYKDSTLIMQLLRDNLTLWTSDMQDDGTDEIKEAAKPDNEQQ

binding: binds
B2: N. tabacum A0A1S4C178 (homolog of Magnesium Transporter 7) (protein, UniProt A0A1S4C178 1-372)
chain: MKTGVSRSWILVDSKGESSILDLDKYAIMKRVPIHARDLRILDPLLSYPSAILGREKAIVLNLEHIKAIITTDEVLLRDPLDDNVAPVVEELQRRLPLPAIAFGEGEDDDQPAVNGARTEMQNVEPTEFPFEFRALEVALEGVCSYLDTQTRELETAAYPALDELTSKISSRNLDRVRKLKSAMTRLTSRVQKVRDDLEQLLEDDDDMADLYLSRKVAGASSPLSGQGALYWSPDSPKLLSKTSKISGLTQEETDVEELEMLLEAYFVQIESTMNKLTTLREYIDDTEDYINIQLDNHRNQLIQLELFLSSGTVCLTVYSLVAAIFGMNIPYPWKKDHGYIFKWVVMLAGIASASIFLSIISYARHKGLVGS

binding: binds
B3: N. tabacum A0A1S4AKF1 (homolog of Magnesium Transporter 2) (protein, UniProt A0A1S4AKF1 1-445)
chain: MADLKERLLPPKPASAANLREVAFRPPASGRQPFQGIDVLGLKKRGQGLRSWIRVDTSGNSQVIEVDKFTMMRRCDLPARDLRLLDPLFVYPSTILGREKAIVVNLEQIRCIITADEVLLLNSLDSYVLQYVVELQRRLQAAGAGDVWQPEGDLSRRRGSRNLENMFGTPSPDYLPFEFRALEVALEAACTFLDSQAAELEIEAYPLLDELTSKISTLNLERVRRLKSRLVALTRRVQKVRDEIEQLMDDDGDMAEMYLTEKKRRMELSCYGDQSLLGYRSTDGALSVSAPVSPVSSPPESRRLEKSLSIARSRHESMRSSESGAETQSIEELEMLLEAYFVVIDSTLNKLTSLKEYIDDTEDFINIQLDNVRNQLIQFELLLTTATFVVAIFGVVAGIFGMNFEIPMFNQPDAFKWVLIITGVTGAVIFFAFLWFFKYRRLMPL
